# Experimental data taken from PubChem BioAssay AID2685 (National Center for Advancing Translational Sciences (NCATS), 2010).
# The list shows a part of the results. Further columns of the screen follow, without active or inactive calls. Compounds called inactive in the main read-out are mostly missing here. The note in brackets gives the kind of curve behind each potency; many fits are weak.
# Assay: qHTS Assay for Lipid Storage Modulators in Drosophila S3 Cells;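 on cell number change: cells counted by Cell Tracker Red CMTPX staining in the red channel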
# Settings: BODIPY lipid droplet fluorescence, 18-24 h; for cell number change: measured here: cell count max response, cells fed with added oleic acid
# Outline: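 Drosophila S3 cells loaded with oleic acid (400 uM, as added) and compounds at several concentrations; lipid droplets imaged by 488-nm laser-scanning cytometry, 500–530 nm intensity and object ratio to cell channel. Percent activity normalized to 20 uM Triacsin C.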
# [1] = measured here: lipid fluorescence (Fed channel) AC50, cells fed with added oleic acid
# [2] = measured here: cell number channel AC50, cells fed with added oleic acid
SMILES,AC50 [1],cell number change [%],AC50 [2]
Cn1cccc1Cc1nnc(SCC(=O)NCc2ccc3c(c2)OCO3)n1CCc1ccccc1,"0.58 µM [rising, single point]",,
COC(c1ccccc1)c1nnc(CCC(=O)N(C)CCc2ccccc2)o1 (stereo not given),"20.6 µM [falling, partial curve, poor fit]",-28,
CCCN(CCC)C(=O)CSc1nc2ccccc2c(=O)n1C1CCCC1,"6.51 µM [rising, single point]",,
CC(C)NC(=O)CN1C(=O)NC(CCc2ccccc2)C1=O (stereo not given),,16.2,
COc1ccc(C(=O)N2CCOC2CNC(=O)C(=O)NCCc2ccc(OC)c(OC)c2)cc1 (stereo not given),"0.651 µM [falling, full curve]",5.82,
Cc1ccc(NC(=O)CSc2ccccn2)cc1S(=O)(=O)N1CCOCC1,,36.4,"6.51 µM [rising, single point]"
COc1ccc(/C=C2/SC(=O)N(CCC(=O)Nc3ccccc3C(=O)O)C2=S)cc1,"2.06 µM [rising, full curve, poor fit]",19.4,
Cc1nn(C)cc1C(N)=O,"4.11 µM [falling, full curve]",-21.4,
CCC(=O)n1nc(-c2cccnc2)nc1NCc1ccccc1,"3.66 µM [falling, single point]",5.98,"3.66 µM [falling, single point]"
Cc1cccc(OCC(=O)N2CCC(N3CCCCCC3)CC2)c1,,-34.8,"2.59 µM [falling, full curve]"
CCCCc1nc2sc3c(c2c(=O)[nH]1)CCC3,"0.326 µM [falling, partial curve]",-13,
Cc1ccc(C(=O)N2CC=C(c3ccccc3)CC2)o1,"1.46 µM [rising, partial curve]",2.78,
O=[N+]([O-])C(C1CCS(=O)(=O)C1)C1CCS(=O)(=O)C1 (stereo not given),"3.66 µM [falling, partial curve, poor fit]",-27.1,
CSc1cccc(CN2CCCC(C(=O)Nc3cccc(-n4cccn4)c3)C2)c1 (stereo not given),,11.9,
CC(C)(C)C(=O)CN1C2=NCCCN2c2ccccc21,"0.13 µM [rising, full curve, poor fit]",20.2,
O=C(c1ccc(CSc2ccc(Cl)cc2)cc1)N1CCCC1,,2.6,
O=C(Cn1cnc2ccccc21)N1CCc2ccccc21,"29.1 µM [falling, partial curve, poor fit]",-33.3,"32.6 µM [falling, single point]"
COc1ccc(C)cc1NC(=O)CN(c1ccccc1F)S(C)(=O)=O,"1.03 µM [rising, full curve]",-10.3,
O=C1CCC(=O)N1CNc1ccccn1,"29.1 µM [falling, partial curve]",-143,"23.1 µM [falling, partial curve]"
CCCCn1c(N)c(N(CCC(C)C)C(=O)C2CCCN(C(=O)c3ccc(Cl)cc3)C2)c(=O)[nH]c1=O (stereo not given),,23,

SMILES,AC50 [1],cell number change [%],AC50 [2]
COc1ccc(N(C(=O)CNC(=O)c2ccco2)C(C(=O)NC2CCCCC2)c2ccncc2)cc1 (stereo not given),"6.51 µM [rising, single point]",5.65,
CCN(c1ccccc1)S(=O)(=O)c1cc(OC)ccc1OC,"29.1 µM [rising, single point]",27.5,
O=C(c1ccco1)N1CCN(C(=O)c2cc3c(s2)-c2ccccc2OC3)CC1,"0.651 µM [rising, full curve, poor fit]",-1.63,
COCCNS(=O)(=O)c1ccc(OCC(=O)OC)c(Cl)c1,"11.6 µM [falling, partial curve]",-31.2,"8.2 µM [falling, partial curve]"
CC1CCC(C(C)C)C(OC(=O)COC(=O)c2ccc(=O)[nH]c2)C1 (stereo not given),,-35,"32.6 µM [falling, single point]"
COc1ccc(CN2CCN(C(=O)CC(C)C)CC2)cc1Br,"8.2 µM [rising, single point]",16.3,
CCC(Sc1ncccc1C(=O)OCCN1CCCC1=O)C(=O)NCc1ccco1 (stereo not given),"23.1 µM [rising, partial curve, poor fit]",23.2,
CC1CN(CCCCOc2cccc(Oc3ccccc3)c2)CC(C)O1 (stereo not given),"29.1 µM [rising, partial curve]",65.5,"18.4 µM [rising, partial curve]"
COc1ccc2c(c1)c(=O)c(C(=O)c1ccc(Cl)cc1)cn2CC(=O)Nc1ccc(F)cc1,"0.731 µM [rising, full curve, poor fit]",15.3,
COc1ccccc1NC(=O)CSc1nnc(CC(=O)Nc2cccc(C(F)(F)F)c2)n1C,"20.6 µM [rising, partial curve]",180,"11.6 µM [rising, partial curve]"
COc1ccc(N2CCN(CC(O)COCCOc3ccc(Br)cc3)CC2)cc1 (stereo not given),"29.1 µM [rising, single point]",-20,
COC(=O)c1ccc(NC(=O)CNC(=O)C2CCCCC2)cc1,,11.2,
C=CCN(CC=C)CCOc1ccccc1[N+](=O)[O-],"0.231 µM [rising, full curve]",5.85,
COC(=O)C1(C)NC(c2ccccc2C)C2C(=O)N(c3ccc(F)cc3)C(=O)C21 (stereo not given),"29.1 µM [rising, single point]",30.2,"0.82 µM [rising, full curve]"
COc1ccc(N2CCN(C(=O)c3ccc(CS(=O)c4cccc(C)c4)o3)CC2)cc1 (stereo not given),,-39.5,"0.206 µM [falling, full curve, poor fit]"
CC(=O)NC1=NN(C(C)=O)C2(S1)C(=O)N(CC(C)C)c1ccc(C)cc12 (stereo not given),"29.1 µM [falling, single point]",-26.9,"0.00517 µM [falling, full curve, poor fit]"
O=C(CSc1cc(Cl)ccc1Cl)NC1CCCC1,"6.51 µM [rising, single point]",27,
Cc1ccc(N(CC(=O)NCc2ccco2)C(=O)CCC(=O)Nc2ccccn2)c(C)c1,,-10.3,
Cc1c(NC(=O)C(C)NCC2CCCO2)c(=O)n(-c2ccccc2)n1C (stereo not given),"0.517 µM [falling, single point]",9.55,
CCN1CCN(c2nc(N)c([N+](=O)[O-])c(Nc3cccc(C)c3)n2)CC1,,-4.55,

SMILES,AC50 [1],cell number change [%],AC50 [2]
CC(=O)N1c2ccc(S(=O)(=O)N3CCCC3C(=O)NCc3ccccc3Cl)cc2CC1C (stereo not given),"0.164 µM [rising, full curve, poor fit]",-1.15,
C=CCOc1ccc(C2=NOC(C(=O)Nc3ccc4c(c3)OCCO4)C2)cc1OC (stereo not given),"0.231 µM [rising, full curve, poor fit]",,
Cc1cc2nc(C)n(CCCNC(=O)Nc3ccccc3)c2cc1C,,31.7,"0.411 µM [rising, full curve]"
O=C(NCCCN1CCN(c2ccccc2)CC1)C1CCCN(c2ncnc3c2nc2n3CCCCC2)C1 (stereo not given),,-78.2,
O=C(Nc1ccccc1)C1CCCN(C(=O)c2ccc(F)cc2)C1 (stereo not given),"29.1 µM [rising, single point]",1.91,
COc1cc2ccccc2cc1C(=O)Nc1ccc2oc(=O)ccc2c1,,5.26,
COc1cc(/C=C/[N+](=O)[O-])ccc1OC(=O)c1cc2ccccc2oc1=O,"6.51 µM [falling, single point]",-0.739,
Cc1nn(CCO)c(C)c1Oc1ccccc1O,"2.06 µM [falling, partial curve, poor fit]",-24,"0.00517 µM [falling, full curve, poor fit]"
Cc1ccc(S(=O)(=O)N(C)C)cc1NC(=O)COC(=O)c1c(C)noc1C,,-33.3,"18.4 µM [falling, single point]"
CC(=O)Nc1cccc(NC(=S)Nc2cccc3ccccc23)c1,"18.4 µM [rising, single point]",11.4,"2.91 µM [rising, partial curve, poor fit]"
Cc1ccccc1CN(C)C(=O)COC(=O)CSc1ccc([N+](=O)[O-])cc1,,-32.9,"4.61 µM [falling, full curve, poor fit]"
CCNC(=S)NNC(=O)c1ccccc1OC(F)F,,24.7,"0.731 µM [rising, full curve, poor fit]"
COc1ccccc1-c1nnc(SCC(=O)Nc2ccc(Cl)cc2Cl)o1,,,"0.00461 µM [rising, full curve, poor fit]"
CCc1nnc(NC(=O)c2cccc(S(=O)(=O)N(C)c3ccc(OC)cc3)c2)s1,"0.58 µM [falling, single point]",,
CCN(CC)S(=O)(=O)c1cccc(C(=O)NNC(=O)C2=NN(c3ccccc3)C(=O)CC2)c1,"4.11 µM [rising, partial curve]",1.19,
COc1cccc(Nc2nc(-c3ccc(O)cc3)cs2)c1,"14.6 µM [rising, partial curve]",,"0.13 µM [rising, partial curve, poor fit]"
COCCN(CCOC)S(=O)(=O)c1ccc(C(=O)Nc2nc(-c3ccccc3)c(C(=O)c3ccccc3)s2)cc1,,30.3,"10.3 µM [rising, single point]"
CC(=O)c1cc2c(cc1NC(=O)c1ccco1)OCCO2,"29.1 µM [falling, single point]",-44.1,"29.1 µM [falling, single point]"
CCN(Cc1ccc(O)cc1)CC1CCCN(CCc2cccc(F)c2)C1 (stereo not given),"0.146 µM [rising, partial curve, poor fit]",-13.8,

# Reformatted: 2 of the compounds above
SMILES	AC50 [1]	cell number change [%]	AC50 [2]
O=C(NCCCN1CCN(c2ccccc2)CC1)C1CCCN(c2ncnc3c2nc2n3CCCCC2)C1 (stereo not given)		-78.2	
Cc1ccccc1CN(C)C(=O)COC(=O)CSc1ccc([N+](=O)[O-])cc1		-32.9	4.61 µM [falling, full curve, poor fit]
